{"source": "PubChem BioAssay AID1224830 – NIAID – 2016", "purpose": "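Regulators of TLR4 signalling towards TNF-alpha in macrophage-like cells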 (primary screen)", "system": "human THP-1 monocytic leukaemia cells, TNF dual-luciferase reporter clone, PMA-differentiated to macrophage-like cells", "knock-down reagent": "siRNA pool against human genes, 50 nM", "time to read-out": "LPS for 4 h, given about 3 days after siRNA transfection", "challenge": "bacterial LPS (TLR4 ligand), 10 ng/ml", "measured": "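Ratio of firefly to renilla light, scaled to the plate median and expressed as a robust z-score per replicate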", "direction": "TNF reporter robust z-score: higher = stronger TNF reporter response to LPS", "rule for the call": "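a well is active when its z-score exceeds 2.8 or falls below -1.5; control wells carry no call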", "note": "This is an unselected part of about 18,000 reagents. About 2,900 of all reagents (16%) count as active. 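Calls are made per well; low scores hint the gene aids the LPS response, high scores that it dampens it.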 Unmarked entries are inactive. Repeated entries: four replicate wells of each siRNA pool."}
{"target gene":"OR8H3","PubChem SID":"SID315464615","TNF reporter robust z-score":0.1}
{"target gene":"OR8H3","PubChem SID":"SID315464615","TNF reporter robust z-score":0.25}
{"target gene":"OR8H3","PubChem SID":"SID315464615","TNF reporter robust z-score":0.49}
{"target gene":"OR8H3","PubChem SID":"SID315464615","TNF reporter robust z-score":1.66}
{"target gene":"WNT10B","PubChem SID":"SID315452150","TNF reporter robust z-score":-0.75}
{"target gene":"WNT10B","PubChem SID":"SID315452150","TNF reporter robust z-score":-0.04}
{"target gene":"WNT10B","PubChem SID":"SID315452150","TNF reporter robust z-score":-0.4}
{"target gene":"WNT10B","PubChem SID":"SID315452150","TNF reporter robust z-score":0.69}
{"target gene":"FPR1","PubChem SID":"SID315448753","TNF reporter robust z-score":-0.02}
{"target gene":"FPR1","PubChem SID":"SID315448753","TNF reporter robust z-score":0.74}
{"target gene":"FPR1","PubChem SID":"SID315448753","TNF reporter robust z-score":0.99}
{"target gene":"FPR1","PubChem SID":"SID315448753","TNF reporter robust z-score":1.33}
{"target gene":"MED17","PubChem SID":"SID315453285","TNF reporter robust z-score":-0.17}
{"target gene":"MED17","PubChem SID":"SID315453285","TNF reporter robust z-score":-0.08}
{"target gene":"MED17","PubChem SID":"SID315453285","TNF reporter robust z-score":-0.39}
{"target gene":"MED17","PubChem SID":"SID315453285","TNF reporter robust z-score":-1.13}
{"target gene":"MAP3K15","PubChem SID":"SID315464583","TNF reporter robust z-score":0.17}
{"target gene":"MAP3K15","PubChem SID":"SID315464583","TNF reporter robust z-score":0.1}
{"target gene":"MAP3K15","PubChem SID":"SID315464583","TNF reporter robust z-score":0.31}
{"target gene":"MAP3K15","PubChem SID":"SID315464583","TNF reporter robust z-score":1.18}
{"target gene":"SMARCA2","PubChem SID":"SID315451524","TNF reporter robust z-score":0.45}
{"target gene":"SMARCA2","PubChem SID":"SID315451524","TNF reporter robust z-score":0.55}
{"target gene":"SMARCA2","PubChem SID":"SID315451524","TNF reporter robust z-score":-0.39}
{"target gene":"SMARCA2","PubChem SID":"SID315451524","TNF reporter robust z-score":0.02}
{"target gene":"G6PC3","PubChem SID":"SID315461016","TNF reporter robust z-score":1.79}
{"target gene":"G6PC3","PubChem SID":"SID315461016","TNF reporter robust z-score":0.69}
{"target gene":"G6PC3","PubChem SID":"SID315461016","TNF reporter robust z-score":1.06}
{"target gene":"G6PC3","PubChem SID":"SID315461016","TNF reporter robust z-score":0.19}
{"target gene":"ZNF678","PubChem SID":"SID315464041","TNF reporter robust z-score":0.56}
{"target gene":"ZNF678","PubChem SID":"SID315464041","TNF reporter robust z-score":0.15}
{"target gene":"ZNF678","PubChem SID":"SID315464041","TNF reporter robust z-score":0.38}
{"target gene":"ZNF678","PubChem SID":"SID315464041","TNF reporter robust z-score":0.47}
{"target gene":"PRKAB1","PubChem SID":"SID315450790","TNF reporter robust z-score":-0.35}
{"target gene":"PRKAB1","PubChem SID":"SID315450790","TNF reporter robust z-score":-0.73}
{"target gene":"PRKAB1","PubChem SID":"SID315450790","TNF reporter robust z-score":-1.36}
{"target gene":"PRKAB1","PubChem SID":"SID315450790","TNF reporter robust z-score":2.6}
{"target gene":"USH2A","PubChem SID":"SID315452092","TNF reporter robust z-score":0.46}
{"target gene":"USH2A","PubChem SID":"SID315452092","TNF reporter robust z-score":0.87}
{"target gene":"USH2A","PubChem SID":"SID315452092","TNF reporter robust z-score":-0.77}
{"target gene":"USH2A","PubChem SID":"SID315452092","TNF reporter robust z-score":-0.16}
{"target gene":"MDH1B","PubChem SID":"SID315461874","TNF reporter robust z-score":"8.31 (active)"}
{"target gene":"MDH1B","PubChem SID":"SID315461874","TNF reporter robust z-score":0.26}
{"target gene":"MDH1B","PubChem SID":"SID315461874","TNF reporter robust z-score":-0.78}
{"target gene":"MDH1B","PubChem SID":"SID315461874","TNF reporter robust z-score":-0.38}
{"target gene":"TLCD3A","PubChem SID":"SID315459512","TNF reporter robust z-score":1.3}
{"target gene":"TLCD3A","PubChem SID":"SID315459512","TNF reporter robust z-score":1.26}
{"target gene":"TLCD3A","PubChem SID":"SID315459512","TNF reporter robust z-score":-0.87}
{"target gene":"TLCD3A","PubChem SID":"SID315459512","TNF reporter robust z-score":-0.22}

Hits (from the list above):
{"target gene":"MDH1B","PubChem SID":"SID315461874","TNF reporter robust z-score":"8.31 (active)"}
